These are yes or no findings as the source states them, for the method shown. Binding seen in cells or lysates may run through a third protein. Some entries that bind do so weakly or less than the wild type.

Sequences of proteins named here, by UniProt entry; tags and fusion partners are left off.
UniProt P61244: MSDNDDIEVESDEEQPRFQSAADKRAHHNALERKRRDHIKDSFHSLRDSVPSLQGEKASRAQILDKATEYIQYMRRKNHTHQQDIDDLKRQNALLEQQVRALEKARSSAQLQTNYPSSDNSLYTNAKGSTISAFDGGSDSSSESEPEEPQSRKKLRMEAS

The target in this experiment is MAX (human (endogenous in K562)) (UniProt P61244). The experiment is described as follows: co-IP; lysates of SCR- and shMETTL16-transduced K562 cells at 5 days post-infection, non-denaturing conditions; immunoprecipitated with anti-MAX (anti-IgG as control), Protein-G Dynabeads, eluates analysed by Western blot.

B1: MAX Dimerization Protein 4 (MXD4) (protein, UniProt Q14582 1-209)
chain: MELNSLLILLEAAEYLERRDREAEHGYASVLPFDGDFAREKTKAAGLVRKAPNNRSSHNELEKHRRAKLRLYLEQLKQLVPLGPDSTRHTTLSLLKRAKVHIKKLEEQDRRALSIKEQLQQEHRFLKRRLEQLSVQSVERVRTDSTGSAVSTDDSEQEVDIEGMEFGPGELDSVGSSSDADDHYSLQSGTGGDSGFGPHCRRLGRPALS
Regarding B1, the binding result is given as “binds”.

Source of the values: PMC12537489.
